Laboratory results as given in PMC10182982.
No constants are given. Whether binding was seen depends on the method and setting. For part of these data: Binding seen in cells or lysates may run through a third protein. Some binding calls cover weakened binding; strength is not graded here. For part of these data: Tags and fused reporters may be left off the sequences shown. Blank lines part the entries; values can stand above or below the substance they belong to.

Protein sequences, listed by entry. Tags and fused reporters are not part of them.
UniProt Q16877: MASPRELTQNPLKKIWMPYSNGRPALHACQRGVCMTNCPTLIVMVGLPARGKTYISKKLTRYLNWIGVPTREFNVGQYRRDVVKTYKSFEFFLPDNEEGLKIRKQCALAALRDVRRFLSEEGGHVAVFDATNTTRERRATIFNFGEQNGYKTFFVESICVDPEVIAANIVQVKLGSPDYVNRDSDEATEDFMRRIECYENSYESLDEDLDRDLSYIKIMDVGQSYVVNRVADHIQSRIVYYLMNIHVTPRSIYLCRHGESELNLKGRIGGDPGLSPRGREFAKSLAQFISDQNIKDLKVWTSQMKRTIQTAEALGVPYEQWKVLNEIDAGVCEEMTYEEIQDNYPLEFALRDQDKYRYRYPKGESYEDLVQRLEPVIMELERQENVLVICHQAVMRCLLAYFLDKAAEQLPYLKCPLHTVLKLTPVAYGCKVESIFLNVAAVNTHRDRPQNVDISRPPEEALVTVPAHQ

Tests used:
[1] = biological target: T1, F-box/LRR-repeat protein 7 (FBXL7), endogenous (human (endogenous in 293T)) (UniProt Q9UJT9); assay: co-IP; endogenous proteins in 293T lysate (EBC buffer: 50 mM Tris pH 7.5, 120 mM NaCl, 0.5% NP-40), overnight 4 °C, Western blot; precipitating antibody of this panel not told (anti-PFKFB4 is listed in the methods)
T1 sequence: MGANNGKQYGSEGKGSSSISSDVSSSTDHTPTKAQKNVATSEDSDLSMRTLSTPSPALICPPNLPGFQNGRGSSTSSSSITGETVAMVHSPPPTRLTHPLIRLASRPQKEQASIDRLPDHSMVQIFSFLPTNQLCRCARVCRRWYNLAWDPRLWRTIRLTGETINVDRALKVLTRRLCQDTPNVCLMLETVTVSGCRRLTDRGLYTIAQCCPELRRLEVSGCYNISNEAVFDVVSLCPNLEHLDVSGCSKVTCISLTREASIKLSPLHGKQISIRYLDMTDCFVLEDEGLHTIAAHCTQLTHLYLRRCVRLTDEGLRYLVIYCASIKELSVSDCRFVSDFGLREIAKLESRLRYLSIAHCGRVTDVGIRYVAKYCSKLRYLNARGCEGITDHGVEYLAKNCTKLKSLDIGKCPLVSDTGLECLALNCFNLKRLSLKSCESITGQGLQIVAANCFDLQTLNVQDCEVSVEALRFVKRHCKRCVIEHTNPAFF

GST-FBXL7 = biological target: T2, GST-FBXL7 (UniProt Q9UJT9); assay: pull-down; purified GST or GST-FBXL7 on glutathione-Sepharose beads, incubated with 1 µg purified His-PFKFB4 at 4 °C; Western blot with anti-GST and anti-His; both purified
T2 sequence: T1 sequence

HA-labeled FBXL7 = biological target: T3, HA-labeled FBXL7 (UniProt Q9UJT9); assay: co-IP; 293T cells with HA-FBXL7 and Myc-PFKFB4; immunoprecipitation with HA or Myc antibody, EBC buffer lysate, overnight 4 °C, Western blot
T3 sequence: T1 sequence

binding [1]: binds
Substance: 6-phosphofructo-2-kinase/fructose-2,6-biphosphatase 4 (PFKFB4), endogenous (from UniProt Q16877 1-469)

binding (GST-FBXL7): binds
Substance: His-PFKFB4 (from UniProt Q16877 1-469)

binding (HA-labeled FBXL7): binds
Substance: Myc-labeled PFKFB4 (from UniProt Q16877 1-469)
